From patent US20130203067A1
Results are given in words; binding and its absence hold for the method and conditions named. Some results given as binding are weak or reduced against the parent protein; the word gives no strength. Where a sequence is shown, tags or fusion partners need not be part of it.

By UniProt entry, the sequences of proteins in these tests, tags left out.
UniProt P10415: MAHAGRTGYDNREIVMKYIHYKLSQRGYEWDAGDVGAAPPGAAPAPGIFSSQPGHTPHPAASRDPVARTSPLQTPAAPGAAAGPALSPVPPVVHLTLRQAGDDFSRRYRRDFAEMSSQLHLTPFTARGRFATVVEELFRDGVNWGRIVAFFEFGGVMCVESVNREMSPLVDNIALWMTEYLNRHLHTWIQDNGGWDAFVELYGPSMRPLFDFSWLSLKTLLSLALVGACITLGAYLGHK

Target: B-cell lymphoma-2 (BCL2), native, untagged (UniProt P10415)
Assay: in-cell stabilisation of PL fusion by co-expressed BCL-2, U2OS cells, EFC luminescence

| Binder | binding |
| --- | --- |
| Bax-PL fusion (truncated Bax peptide fused to ProLabel) (peptide, not shown: small tags and cut ends) QDASTKKLSECLKRIGDELDSNSLAVVLQRRDWENPGVTQLNRLAAHPPFASWRNSEEARTDR | binds |
| Bak-PL fusion (truncated Bak peptide fused to ProLabel) (peptide, not shown: small tags and cut ends) GQVGRQLAIIGDDINRNSLAVVLQRRDWENPGVTQLNRLAAHPPFASWRNSEEARTDR | binds |
